Reference: patent publication US10563263B2, “Genetic polymorphisms associated with statin response and cardiovascular diseases, methods of detection and uses thereof” (CELERA CORPORATION, priority 2010, dated 2020)
The source gives many values for each of these; only a part stands here.

Tested on: CVD (CHD or stroke)
Test: Meta-analysis of CARE and WOSCOPS combined, synergy index, CVD endpoint
Type: in vivo, human
Description: Tables 4-5 provide meta-analyses of CARE and WOSCOPS combined (2nd section of each table) for two endpoints (CHD and CVD) and three genetic models (dominant, recessive, and additive), as well as logistic regression analyses of CARE (3rd section of each table) and WOSCOPS (4th section of each table) individually.
Tables 12 and 17 provide results of meta-analysis of the CARE and WOSCOPS sample sets combined by direct genotyping and by imputing genotypes.
“P” indicates the p-value, and “P(R)” (or “P.R.”) indicates the p-value random effect. Both of these are p-values corresponding to a statistical test of whether the combined synergy index is equal to one but use different assumptions to derive the p-value. “P” is calculated using a fixed effects model, and “P(R)” is calculated using a random effects model.
“OR” indicates the odds ratio (synergy index) calculated from a fixed effects model, and “OR(R)” (or “OR.R.”) indicates the odds ratio (synergy index) calculated from a random effects model.

[1] = rs613799 allele C DOMINANT Imputed
[2] = rs644041 allele G ADDITIVE Imputed
[3] = rs644041 allele G DOMINANT Imputed
[4] = rs647645 allele C ADDITIVE Imputed
[5] = rs647645 allele C GENOTYPIC Imputed
[6] = rs647645 allele C RECESSIVE Imputed
[7] = rs658108 allele A DOMINANT Imputed
[8] = rs668732 allele A DOMINANT Imputed
[9] = rs671041 allele A DOMINANT Imputed
[10] = rs687047 allele C ADDITIVE Imputed
[11] = rs688358 allele A ADDITIVE Imputed
[12] = rs710832 allele A GENOTYPIC Genotyped
[13] = rs710832 allele A RECESSIVE Genotyped
[14] = rs742827 allele A ADDITIVE Imputed
[15] = rs742827 allele A GENOTYPIC Imputed
[16] = rs742827 allele A RECESSIVE Imputed
[17] = rs6040644 allele A GENOTYPIC Imputed
[18] = rs6040644 allele A RECESSIVE Imputed
[19] = rs6040667 allele T ADDITIVE Imputed
[20] = rs6040667 allele T GENOTYPIC Imputed
[21] = rs6040667 allele T RECESSIVE Imputed
[22] = rs6040668 allele C ADDITIVE Imputed
[23] = rs6040668 allele C GENOTYPIC Imputed
[24] = rs6040668 allele C RECESSIVE Imputed
[25] = rs6043066 allele G DOMINANT Genotyped
[26] = rs6048146 allele G DOMINANT Imputed
[27] = rs6082725 allele T DOMINANT Genotyped
[28] = rs6131206 allele C ADDITIVE Imputed
[29] = rs6131208 allele T ADDITIVE Imputed
[30] = rs6131208 allele T GENOTYPIC Imputed
[31] = rs6131208 allele T RECESSIVE Imputed
[32] = rs6134243 allele C ADDITIVE Imputed
[33] = rs6134243 allele C GENOTYPIC Imputed
[34] = rs6134243 allele C RECESSIVE Imputed
[35] = rs6136020 allele A DOMINANT Imputed
[36] = rs6495554 allele C GENOTYPIC Imputed
[37] = rs6495554 allele C RECESSIVE Imputed
[38] = rs6495555 allele C GENOTYPIC Imputed
[39] = rs6495555 allele C RECESSIVE Imputed
[40] = rs6544728 allele T DOMINANT Imputed
[41] = rs6550705 allele C ADDITIVE Imputed
[42] = rs6550705 allele C GENOTYPIC Imputed
[43] = rs6550707 allele T GENOTYPIC Imputed
[44] = rs6593441 allele A DOMINANT Imputed
[45] = rs6719700 allele A ADDITIVE Imputed
[46] = rs6719700 allele A DOMINANT Imputed
[47] = rs6722640 allele T DOMINANT Imputed
[48] = rs6743092 allele T ADDITIVE Imputed
[49] = rs6743092 allele T GENOTYPIC Imputed
[50] = rs6743092 allele T RECESSIVE Imputed
[51] = rs6744759 allele G RECESSIVE Imputed
[52] = rs6746170 allele A DOMINANT Imputed
[53] = rs6759922 allele A DOMINANT Imputed
[54] = rs6769864 allele T GENOTYPIC Imputed
[55] = rs6773932 allele C GENOTYPIC Imputed

CC[C@H](C)C(=O)O[C@H]1C[C@H](O)C=C2C=C[C@H](C)[C@H](CC[C@@H](O)C[C@@H](O)CC(=O)O)[C@H]21 [Pravastatin, pravastatin]
OR (rs483159 allele T DOMINANT Imputed): 1.4202 | OR (rs489441 allele G ADDITIVE Imputed): 1.4992 | OR (rs489441 allele G DOMINANT Imputed): 1.6072 | OR [1]: 1.5657 | OR(R) [1]: 1.5657 | OR [2]: 1.4631 | OR(R) [2]: 1.4631 | OR [3]: 1.5751 | OR(R) [3]: 1.5751 | OR [4]: 0.7025 | OR(R) [4]: 0.7025 | OR [5]: 0.4822 | OR(R) [5]: 0.4822 | OR [6]: 0.5474 | OR(R) [6]: 0.5474 | OR [7]: 1.5304 | OR(R) [7]: 1.5304 | OR [8]: 1.6958 | OR(R) [8]: 1.6958 | OR [9]: 1.5412 | OR(R) [9]: 1.5412 | OR [10]: 0.6716 | OR(R) [10]: 0.6716 | OR [11]: 0.6614 | OR(R) [11]: 0.6614 | OR [12]: 0.3641 | OR(R) [12]: 0.3641 | OR [13]: 0.3456 | OR(R) [13]: 0.3456 | OR [14]: 1.3962 | OR(R) [14]: 1.3962 | OR [15]: 1.9872 | OR(R) [15]: 1.9872 | OR [16]: 1.6988 | OR(R) [16]: 1.6988 | OR (rs937890 allele G (A1), DOMINANT, Imputed): 0.6731 | OR (rs949016 allele C (A1), ADDITIVE, Imputed): 1.5082 | OR (rs966583 allele A (A1), ADDITIVE, Imputed): 0.7272 | OR (rs966583 allele A (A1), DOMINANT, Imputed): 0.5916 | OR (rs974130 allele A (A1), RECESSIVE, Genotyped): 2.0112 | OR (rs977160 allele T (A1), ADDITIVE, Imputed): 1.5465 | OR (rs985375 allele A (A1), GENOTYPIC, Imputed): 2.8891 | OR (rs4760895 allele A ADDITIVE Imputed): 0.7392 | OR (rs4760895 allele A DOMINANT Imputed): 0.6285 | OR (rs4760895 allele A GENOTYPIC Imputed): 0.574 | OR (rs4764738 allele A ADDITIVE Imputed): 1.4051 | OR (rs4764738 allele A GENOTYPIC Imputed): 1.9728 | OR (rs4764974 allele T ADDITIVE Imputed): 1.3855 | OR (rs4764974 allele T GENOTYPIC Imputed): 1.9196 | OR (rs4798366 allele G RECESSIVE Imputed): 1.8332 | OR (rs4836502 allele T DOMINANT Imputed): 0.6712 | OR (rs4836507 allele C DOMINANT Imputed): 0.6775 | OR (rs4836744 allele A ADDITIVE Imputed): 0.7345 | OR (rs4836744 allele A DOMINANT Imputed): 0.6854 | OR (rs4848944 allele C RECESSIVE Genotyped): 0.5945 | OR (rs4851529 allele A DOMINANT Imputed): 0.6476 | OR (rs4851531 allele T DOMINANT Imputed): 0.6621 | OR (rs4858046 allele T GENOTYPIC Genotyped): 2.0533 | OR (rs4878214 allele A ADDITIVE Imputed): 0.6477 | OR (rs4880803 allele A ADDITIVE Imputed): 0.7694 | OR (rs4896568 allele T DOMINANT Imputed): 0.6231 | OR (rs4938851 allele T DOMINANT Imputed): 1.4515 | OR (rs4964416 allele C DOMINANT Imputed): 0.6251 | OR (rs5756669 allele C DOMINANT Imputed): 1.6531 | OR (rs6033138 allele C ADDITIVE Imputed): 1.3837 | OR (rs6033138 allele C GENOTYPIC Imputed): 1.9484 | OR (rs6033138 allele C RECESSIVE Imputed): 1.6769 | OR (rs6040619 allele C ADDITIVE Imputed): 1.3881 | OR (rs6040619 allele C GENOTYPIC Imputed): 2.0334 | OR (rs6040619 allele C RECESSIVE Imputed): 1.7879 | OR (rs6040625 allele T ADDITIVE Imputed): 1.3888 | OR (rs6040625 allele T GENOTYPIC Imputed): 2.0214 | OR (rs6040625 allele T RECESSIVE Imputed): 1.7684 | OR (rs6040630 allele A ADDITIVE Imputed): 1.3767 | OR (rs6040630 allele A GENOTYPIC Imputed): 1.9741 | OR (rs6040630 allele A RECESSIVE Imputed): 1.7241 | OR (rs6040633 allele A ADDITIVE Imputed): 1.3703 | OR (rs6040633 allele A GENOTYPIC Imputed): 1.9475 | OR (rs6040633 allele A RECESSIVE Imputed): 1.6999 | OR (rs6040634 allele T ADDITIVE Imputed): 1.3722 | OR (rs6040634 allele T GENOTYPIC Imputed): 1.9531 | OR (rs6040634 allele T RECESSIVE Imputed): 1.7021 | OR (rs6040636 allele T ADDITIVE Imputed): 1.3761 | OR (rs6040636 allele T GENOTYPIC Imputed): 1.9585 | OR (rs6040636 allele T RECESSIVE Imputed): 1.7021 | OR (rs6040638 allele C ADDITIVE Imputed): 1.3722 | OR (rs6040638 allele C GENOTYPIC Imputed): 1.9531 | OR (rs6040638 allele C RECESSIVE Imputed): 1.7021 | OR (rs6040644 allele A ADDITIVE Imputed): 1.3722 | OR [17]: 1.9531 | OR(R) [17]: 1.9531 | OR [18]: 1.7021 | OR(R) [18]: 1.7021 | OR [19]: 1.3662 | OR(R) [19]: 1.3662 | OR [20]: 1.9386 | OR(R) [20]: 1.9386 | OR [21]: 1.6903 | OR(R) [21]: 1.6903 | OR [22]: 1.3643 | OR(R) [22]: 1.3643 | OR [23]: 1.9325 | OR(R) [23]: 1.9325 | OR [24]: 1.6839 | OR(R) [24]: 1.6839 | OR [25]: 1.4888 | OR(R) [25]: 1.4596 | OR [26]: 2.6562 | OR(R) [26]: 2.6562 | OR [27]: 2.6562 | OR(R) [27]: 2.6562 | OR [28]: 1.3126 | OR(R) [28]: 1.3126 | OR [29]: 1.3725 | OR(R) [29]: 1.3725 | OR [30]: 1.9551 | OR(R) [30]: 1.9551 | OR [31]: 1.7011 | OR(R) [31]: 1.7011 | OR [32]: 1.3722 | OR(R) [32]: 1.3722 | OR [33]: 1.9531 | OR(R) [33]: 1.9531 | OR [34]: 1.7021 | OR(R) [34]: 1.7021 | OR [35]: 0.5953 | OR(R) [35]: 0.5953 | OR [36]: 3.4509 | OR(R) [36]: 3.4509 | OR [37]: 3.317 | OR(R) [37]: 3.317 | OR [38]: 3.4509 | OR(R) [38]: 3.4509 | OR [39]: 3.317 | OR(R) [39]: 3.317 | OR [40]: 1.6406 | OR(R) [40]: 1.6406 | OR [41]: 1.3969 | OR(R) [41]: 1.3969 | OR [42]: 2.0995 | OR(R) [42]: 2.0995 | OR [43]: 2.0358 | OR(R) [43]: 2.0358 | OR [44]: 1.6724 | OR(R) [44]: 1.6724 | OR [45]: 1.4892 | OR(R) [45]: 1.4892 | OR [46]: 1.5282 | OR(R) [46]: 1.5282 | OR [47]: 0.6343 | OR(R) [47]: 0.6343 | OR [48]: 1.3618 | OR(R) [48]: 1.3618 | OR [49]: 1.8571 | OR(R) [49]: 1.8571 | OR [50]: 1.5648 | OR(R) [50]: 1.5648 | OR [51]: 1.7637 | OR(R) [51]: 1.7637 | OR [52]: 1.6166 | OR(R) [52]: 1.6166 | OR [53]: 0.5892 | OR(R) [53]: 0.5892 | OR [54]: 2.0921 | OR(R) [54]: 2.0921 | OR [55]: 2.0503 | OR(R) [55]: 2.0503
